Article PMC9166766
Results are given in words; binding and its absence hold for the method and conditions named. A result given as binding can be weak or reduced; the word gives no strength. Sequences can lack the tags named with a protein. For some of these results: In cells and extracts the contact can be indirect.

B1: GAL4 DBD-tagged CABIN1-L-1 (peptide)
chain: FPPEITVTPPTP
B2: GAL4 DBD-tagged CABIN1-L-1-1 (peptide)
chain: PPEITVTPPTP
B3: GAL4 DBD-tagged CABIN1-L-1-2 (peptide)
chain: PEITVTPPTP
B4: GST-tagged CABIN1-L-1-2 expressed in HEK293T cells (peptide)
chain: PEITVTPPTP
B5: GST-tagged CABIN1-L-1-2, purified (peptide)
chain: PEITVTPPTP
B6: GAL4 DBD-tagged CABIN1-L-2 (peptide)
chain: FPPEITVTPPT
B7: GAL4 DBD-tagged CABIN1-L-1-3 (peptide)
chain: EITVTPPTP

How the values were obtained:
Flag-tagged CNAβ2 [1] = experiment: co-IP; immunoprecipitation with GAL4 DBD-tagged CABIN1 peptides and Flag-tagged CNA (Supplementary Fig. 1d, e); cells lysed in IP150 buffer, Anti-FLAG M2 Affinity Gel
Flag-tagged CNAβ2 [2] = experiment: co-IP; transfected HEK293T cells lysed in IP150 buffer; Flag- and HA-tagged proteins precipitated with Anti-FLAG M2 Affinity Gel or Anti-HA Agarose; western blot
His-tagged CNAβ2 = experiment: pull-down; in vitro His-pulldown: purified His-tagged CNAβ2 mixed with purified GST-tagged peptides in 0.5 ml IP150 buffer with 0.5 mM EDTA, captured on Ni-NTA agarose, western blot; both purified

| Binder | binding (Flag-tagged CNAβ2 [1]) | also measured |
| --- | --- | --- |
| B1 | binds |  |
| B2 | binds |  |
| B3 | binds |  |
| B4 |  | binding (Flag-tagged CNAβ2 [2]): binds |
| B5 |  | binding (His-tagged CNAβ2): binds |
| B6 | no binding |  |
| B7 | no binding |  |
